Results are given in words; binding and its absence hold for the method and conditions named. In cells and extracts the contact can be indirect. Some entries that bind do so weakly or less than the wild type. For part of these data: Where a sequence is shown, tags or fusion partners need not be part of it.
Key:
[1] = molecular target: T1, MKRN1, ectopically expressed (overexpressed) (UniProt Q9UHC7); assay: co-IP; ectopically expressed (overexpressed) proteins; cells lysed in 50 mM Tris-HCl pH 7.5, 150 mM NaCl, 0.5% Triton X-100, 1 mM EDTA; 1 ug antibody, protein G agarose
T1 sequence: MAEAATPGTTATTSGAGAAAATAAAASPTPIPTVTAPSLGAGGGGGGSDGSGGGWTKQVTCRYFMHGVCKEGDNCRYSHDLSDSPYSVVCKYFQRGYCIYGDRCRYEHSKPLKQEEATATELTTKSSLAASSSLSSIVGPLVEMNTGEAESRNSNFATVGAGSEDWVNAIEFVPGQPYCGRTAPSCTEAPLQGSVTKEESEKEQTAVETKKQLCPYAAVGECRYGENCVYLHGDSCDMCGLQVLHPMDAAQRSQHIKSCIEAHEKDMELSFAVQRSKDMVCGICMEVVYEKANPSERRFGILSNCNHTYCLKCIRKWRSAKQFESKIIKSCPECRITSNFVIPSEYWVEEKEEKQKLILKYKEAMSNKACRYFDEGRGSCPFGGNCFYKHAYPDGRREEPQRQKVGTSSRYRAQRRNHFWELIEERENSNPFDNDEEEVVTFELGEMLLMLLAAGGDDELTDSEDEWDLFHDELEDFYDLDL

Sequences of proteins named here, by UniProt entry; tags and fusion partners are left off.
UniProt P31749: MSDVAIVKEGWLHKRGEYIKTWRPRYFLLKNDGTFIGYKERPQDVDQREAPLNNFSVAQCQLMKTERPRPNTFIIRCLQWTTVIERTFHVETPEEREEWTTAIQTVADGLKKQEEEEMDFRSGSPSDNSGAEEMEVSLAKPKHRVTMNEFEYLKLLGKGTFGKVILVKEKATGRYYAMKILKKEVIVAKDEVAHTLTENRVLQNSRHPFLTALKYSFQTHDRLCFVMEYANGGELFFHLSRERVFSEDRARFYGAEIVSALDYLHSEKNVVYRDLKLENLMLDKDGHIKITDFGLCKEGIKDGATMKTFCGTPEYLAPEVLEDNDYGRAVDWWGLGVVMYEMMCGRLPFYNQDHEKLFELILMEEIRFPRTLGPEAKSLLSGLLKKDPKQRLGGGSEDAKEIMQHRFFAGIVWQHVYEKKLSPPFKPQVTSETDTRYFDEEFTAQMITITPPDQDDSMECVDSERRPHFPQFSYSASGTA

[2] = molecular target: T2, GST-MKRN1 purified from bacteria (UniProt Q9UHC7); assay: pull-down; GST-MKRN1 purified from bacteria incubated 2 h with in vitro translated protein under cell-free conditions, pulled down by glutathione (GST) Sepharose beads, eluted in 10 mM reduced glutathione; only the target purified
T2 sequence: T1 sequence

[3] = molecular target: T3, endogenous MKRN1 of ME-180 cells (human (endogenous in ME-180)) (UniProt Q9UHC7); assay: co-IP; endogenous MKRN1 immunoprecipitated from ME-180 cells with or without EGF treatment (100 ng/ml); bound endogenous AKT1 immunoblotted
T3 sequence: T1 sequence

AKT1, ectopically expressed (from UniProt P31749 1-480)
binding [1]: binds

in vitro translated HA-AKT1 (from UniProt P31749 1-480)
binding [2]: binds

endogenous AKT1 of ME-180 cells (from UniProt P31749 1-480)
binding [3]: binds
